Results are given in words; binding and its absence hold for the method and conditions named. In cells and extracts the contact can be indirect. Some binding calls cover weakened binding; strength is not graded here. Sequences can lack the tags named with a protein.
B1: HA-RBM15 (protein, UniProt Q0VBL3 1-962)
chain: MRSAGREPLPRRSPRWRRASPLCETSAGWRVSQLRRDDLRRPSTMKGKERSPVKPKRSRGGEDSSSRGERSKKLGGSGGSNGSSSGKTDSGGSRRSLHLDKSSSRGGSREYETGGGSSSSRLHSYSSPSTKNSSGGGESRSSSRGGGGESRSSGAASSAPGGGDGVEYKTLKISELGSQLSDEAVEDGLFHEFKRFGDVSVKISHLSGSGSGDERVAFVNFRRPEDARAAKHARGRLVLYDRPLKIEAVYVSRRRSRSPLDKDAYAPSSSVVGTSVGSHRHAPGGGGGQRSLSPGGAALGYRDYRLQQLALGRLPPPPPPPLPRELERERDYPFYDRVRPAYSLEPRVGAGAGAAPFREVDEISPEDDQRANRTLFLGNLDITVTENDLRRAFDRFGVITEVDIKRPSRGQTSTYGFLKFENLDMSHRAKLAMSGKIIIRNPIKIGYGKATPTTRLWVGGLGPWVPLAALAREFDRFGTIRTIDYRKGDSWAYIQYESLDAAHAAWTHMRGFPLGGPDRRLRVDFADTEHRYQQQYLQPLPLTHYELVTDTFGHRAPDPLRSARDRTPPLLYRDRDRDLYTDSDWVPPPPPVRERSARAATSAVTAYEPLDSLDRRRDGWSLDRDRGDRDLPSSRDQPRKRRLPEESGGRHLDRSPESERPRKQRHCTPSPDRSPELSSNRDRYNSDNDRSSRLLLLERSSPVRDRRGSLEKSQSDKRDRKNSASAERDRKHRTAAPTEGKNPLKKEDRSDGNAPSASTSSSKQKPPSQKQDGGTAPVAASSPKLCLAWQGMLLLKNSNFPSNMHLLQGDLQVASSLLVEGSTGGKVAQLKITQRLRLDQPKLDEVTRRIKVAGPNGYAILLAVPGSSDSRSSSSSATSDTAASTQRPLRNLVSYLKQKQAAGVISLPVGGNKDKENTGVLHAFPPCEFSQQFLDSPAKALAKSEEDYLVMIIVRAKLVNSG
B2: HA-SART1 (protein, UniProt Q9Z315 1-806)
chain: MGSSKKHRGEKEAAGTTAAAGTGGTTEQPPRHREHKKHKHRSSGGGSSGGERRKRSRERGSERGSGRRGAEAEARSGAHGRERSQAEPSERRVKREKRDDGYEAAASSKASSGDASSLSIEETNKLRAKLGLKPLEVNAVKKEAGTKEEPVAADVINPMALRQREELREKLAAAKEKRLLNQKLGKIKTLGEDDPWLDDTAAWIERSRQLQKEKDLAEKRAKLLEEMDQEFGVSTLVEEEFEQRRQDLYSARDLQGLTVEHAIDSFREGETVVLTLKDKGVLQDGEDVLVNVNMVDKERADKNVELRKKKPDYLPYAEDESVDDLAQQKPRSILAKYDEELEGERPHSFRLEQGGMADGLRERELEEIRTKLRLQAQSLSSVGPRLASEYLSPEEMVTFKKTKRRVKKIRKKEKEVIMRADDLLPLGDQTQDGDFGSRLRGRGRRRVPEVEEEALEDEEKDPVAQPPPSDDTRVENMDISDEEDGGALPPGSPEGLEEDEAELELQKQLEKGRRLRQLQQLQQLRDSGEKVLEIVKKLESRQRGWEEEEDPERKGTIVFNATSEFCRTLGEIPTYGLAGNREEQEELMDFERDEERSANGGSESDGEENIGWSTVNLDEEKQHQDFSASSTTILDEEPIVNRGLAAALLLCQNKGLLETTVQKVARVKAPNKSLPSAVYCIEDKMAIDDKYSRREEYRGFTQDFKEKDGYKPDVKIEYVDETGRKLTPKEAFRQLSHRFHGKGSGKMKTERRMKKLDEEALLKKMSSSDTPLGTVALLQEKQKAQKTPYIVLSGSGKSMNANTITK

By UniProt entry, the sequences of proteins in these tests, tags left out.
UniProt Q6PDM2: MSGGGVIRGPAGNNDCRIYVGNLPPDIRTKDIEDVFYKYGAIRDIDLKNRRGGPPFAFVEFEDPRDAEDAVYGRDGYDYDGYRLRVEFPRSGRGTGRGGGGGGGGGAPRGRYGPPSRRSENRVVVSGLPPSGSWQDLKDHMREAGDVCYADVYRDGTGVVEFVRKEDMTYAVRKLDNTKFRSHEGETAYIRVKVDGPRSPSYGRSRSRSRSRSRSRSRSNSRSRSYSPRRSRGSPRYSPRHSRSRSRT
UniProt Q9R0U0: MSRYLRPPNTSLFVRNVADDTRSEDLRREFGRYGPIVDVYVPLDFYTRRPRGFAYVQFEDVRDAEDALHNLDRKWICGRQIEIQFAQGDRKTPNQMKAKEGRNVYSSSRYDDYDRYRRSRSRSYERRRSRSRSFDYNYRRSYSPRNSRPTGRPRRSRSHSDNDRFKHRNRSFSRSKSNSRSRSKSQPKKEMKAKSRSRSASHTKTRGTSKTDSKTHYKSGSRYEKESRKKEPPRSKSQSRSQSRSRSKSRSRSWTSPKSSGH

What follows are molecules tested against FLAG-SRSF1 (UniProt Q6PDM2) (assay: co-IP; FLAG-SRSF1 or truncated SRSF1 together with HA-tagged SART1, RBM15 or SRSF10 in 293T cells; lysate, protein A agarose, western blotting).

binding, binds:
HA-SRSF10 (from UniProt Q9R0U0 1-262)
B1
B2
